US8318762B2, “Pyrazolospiroketone acetyl-CoA carboxylase inhibitors” (Pfizer Inc., priority 2008, dated 2012)
Where “and” joins values, the source holds several entries; their conditions need not be identical. Equal values may be shown once. The match of structure and compound is tentative.

Protein sequences, listed by entry. Tags and fused reporters are not part of them.
UniProt O00763, whole entry: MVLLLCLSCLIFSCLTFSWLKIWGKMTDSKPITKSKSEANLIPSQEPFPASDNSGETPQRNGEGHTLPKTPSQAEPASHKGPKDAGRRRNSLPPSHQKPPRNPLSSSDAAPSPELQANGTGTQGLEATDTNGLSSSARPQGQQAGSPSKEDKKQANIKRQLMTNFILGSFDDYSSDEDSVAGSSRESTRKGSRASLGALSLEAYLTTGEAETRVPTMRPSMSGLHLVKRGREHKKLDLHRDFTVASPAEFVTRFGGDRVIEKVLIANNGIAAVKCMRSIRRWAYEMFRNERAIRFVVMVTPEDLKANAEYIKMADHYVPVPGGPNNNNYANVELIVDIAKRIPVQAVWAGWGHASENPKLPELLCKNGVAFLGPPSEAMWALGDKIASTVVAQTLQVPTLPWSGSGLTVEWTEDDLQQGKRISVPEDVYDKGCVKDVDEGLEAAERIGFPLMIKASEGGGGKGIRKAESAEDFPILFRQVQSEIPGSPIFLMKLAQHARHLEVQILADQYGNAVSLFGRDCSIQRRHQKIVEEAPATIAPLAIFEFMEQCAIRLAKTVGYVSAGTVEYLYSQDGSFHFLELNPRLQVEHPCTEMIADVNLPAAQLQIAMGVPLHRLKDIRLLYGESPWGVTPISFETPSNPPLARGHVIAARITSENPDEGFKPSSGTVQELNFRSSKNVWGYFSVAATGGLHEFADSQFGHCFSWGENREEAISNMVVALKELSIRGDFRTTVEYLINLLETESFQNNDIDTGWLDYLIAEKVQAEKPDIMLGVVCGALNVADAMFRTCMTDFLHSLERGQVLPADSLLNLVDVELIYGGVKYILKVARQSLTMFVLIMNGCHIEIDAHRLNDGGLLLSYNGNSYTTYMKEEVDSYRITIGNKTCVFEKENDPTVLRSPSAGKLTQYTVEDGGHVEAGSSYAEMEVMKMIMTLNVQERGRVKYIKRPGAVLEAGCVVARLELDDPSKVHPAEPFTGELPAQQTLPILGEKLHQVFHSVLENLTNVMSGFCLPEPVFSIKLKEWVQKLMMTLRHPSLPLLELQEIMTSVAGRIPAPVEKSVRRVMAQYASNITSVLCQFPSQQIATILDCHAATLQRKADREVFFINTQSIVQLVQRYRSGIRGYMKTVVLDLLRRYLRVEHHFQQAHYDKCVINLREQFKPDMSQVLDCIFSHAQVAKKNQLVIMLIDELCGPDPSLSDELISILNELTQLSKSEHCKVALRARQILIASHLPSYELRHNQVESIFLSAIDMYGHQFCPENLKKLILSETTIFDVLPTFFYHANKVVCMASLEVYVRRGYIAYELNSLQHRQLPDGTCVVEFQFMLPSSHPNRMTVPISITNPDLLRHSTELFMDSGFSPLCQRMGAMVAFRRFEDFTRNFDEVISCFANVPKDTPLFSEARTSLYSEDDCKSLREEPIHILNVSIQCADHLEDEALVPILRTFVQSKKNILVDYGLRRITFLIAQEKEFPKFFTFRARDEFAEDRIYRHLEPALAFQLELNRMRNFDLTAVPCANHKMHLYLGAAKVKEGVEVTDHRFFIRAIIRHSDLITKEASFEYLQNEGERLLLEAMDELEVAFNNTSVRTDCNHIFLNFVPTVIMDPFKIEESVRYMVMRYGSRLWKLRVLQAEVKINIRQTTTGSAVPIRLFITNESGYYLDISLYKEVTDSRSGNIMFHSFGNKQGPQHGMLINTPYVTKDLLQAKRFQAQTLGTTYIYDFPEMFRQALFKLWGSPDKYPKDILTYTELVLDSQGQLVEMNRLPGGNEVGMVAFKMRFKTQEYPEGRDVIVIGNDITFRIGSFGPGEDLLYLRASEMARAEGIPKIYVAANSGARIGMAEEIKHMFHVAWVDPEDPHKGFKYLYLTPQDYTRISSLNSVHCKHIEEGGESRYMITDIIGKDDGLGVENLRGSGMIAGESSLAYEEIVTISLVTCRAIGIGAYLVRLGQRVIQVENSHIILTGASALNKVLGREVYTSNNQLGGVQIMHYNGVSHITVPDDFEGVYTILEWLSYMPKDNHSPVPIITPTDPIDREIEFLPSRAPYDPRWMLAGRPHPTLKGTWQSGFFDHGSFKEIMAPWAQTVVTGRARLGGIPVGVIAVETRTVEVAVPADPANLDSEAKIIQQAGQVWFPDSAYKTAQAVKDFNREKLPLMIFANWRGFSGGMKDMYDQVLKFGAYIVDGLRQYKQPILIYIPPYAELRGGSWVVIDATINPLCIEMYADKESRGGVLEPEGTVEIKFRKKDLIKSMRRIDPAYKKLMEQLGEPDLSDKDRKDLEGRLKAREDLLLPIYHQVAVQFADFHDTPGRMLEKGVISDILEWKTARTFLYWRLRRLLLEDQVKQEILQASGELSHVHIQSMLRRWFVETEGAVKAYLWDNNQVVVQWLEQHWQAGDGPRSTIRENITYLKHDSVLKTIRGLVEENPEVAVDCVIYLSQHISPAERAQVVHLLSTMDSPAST

Experiments:
recombinant human ACC2 = recombinant human ACC2 (Homo sapiens, UniProt O00763); assay: Measurement of human ACC2 inhibition (recombinant hACC2 Transcreener ADP detection FP assay); type: biochemical; settings: read-out: rhACC2 IC50
rat liver ACC = rat liver ACC (Rattus norvegicus, UniProt P11497); settings: read-out: Rat liver ACC IC50; rat liver ACC radio enzymatic assay

SMILES | IC50 (recombinant human ACC2) | IC50 (rat liver ACC)
CCn1nc2c(c1C)OC1(CCN(C(=O)c3ccc4cnn(C)c4c3)CC1)CC2=O | 0.229 µM | 0.236 µM
CCC(C)n1nc2c(c1C)OC1(CCN(C(=O)c3ccc4[nH]nc(C)c4c3)CC1)CC2=O (centres unmarked) [1.137] | 0.014 µM and 0.02 µM | 0.02 µM and 0.036 µM
CCn1cc2c(n1)C(=O)CC1(CCN(C(=O)c3ccc4c(C)n[nH]c4c3)CC1)O2 [2.024] | 0.113 µM | 0.263 µM
CCn1nc2c(c1C)OC1(CCN(C(=O)c3ccc4c(C)n[nH]c4c3)CC1)CC2=O [2.025] | 0.161 µM | 0.131 µM
